# Source: patent US11014966B2 (priority 2016, dated 2021)
# Experiment: general procedure: Fmoc solid-phase peptide synthesis; CTC resin; HBTU/DIPEA; HATU/DIPEA for Fmoc-Dab(Alloc)-OH; TBTU/HOBt for cyclisation
# Settings: whole synthesis, scale 1 mmol, trifluoroacetate salt
substance,measurement,value
Boc-Dab(Dde)-Thr(OtBu)-Dab(Dde)-Dab*-Dab(Dde)-[D-Phe]-Leu-Dab(Dde)-Dab(Dde)-Thr(OtBu)*,isolated mass,80 mg
